# No constants are given. Whether binding was seen depends on the method and setting. In cells and extracts the contact can be indirect. Binding can be weak; no strength is given. Sequences can lack the tags named with a protein.
# Molecular target: T1, Myc-MINDY1 full length (UniProt Q8N5J2)
# T1 sequence: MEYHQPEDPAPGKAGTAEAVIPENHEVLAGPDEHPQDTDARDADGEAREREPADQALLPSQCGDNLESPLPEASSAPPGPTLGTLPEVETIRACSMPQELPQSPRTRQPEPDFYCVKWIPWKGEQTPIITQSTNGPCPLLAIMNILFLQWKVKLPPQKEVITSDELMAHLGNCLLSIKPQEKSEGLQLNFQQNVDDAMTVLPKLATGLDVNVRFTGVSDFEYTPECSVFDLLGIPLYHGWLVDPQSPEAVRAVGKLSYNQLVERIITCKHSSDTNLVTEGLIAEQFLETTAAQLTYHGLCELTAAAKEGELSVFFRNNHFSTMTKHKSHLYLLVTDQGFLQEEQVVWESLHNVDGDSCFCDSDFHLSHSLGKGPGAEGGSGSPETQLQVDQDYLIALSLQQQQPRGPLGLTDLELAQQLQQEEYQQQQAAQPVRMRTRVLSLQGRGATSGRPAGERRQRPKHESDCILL
# Test: co-IP; HEK293 cells transfected with 2 µg Myc-MINDY1 together with HA-ERα full length or mutants; 24 h; NP-40 lysis buffer; IP with Myc antibody, detection with HA antibody
substance,measurement,value
N-terminal of ERα which includes AF1 domain (HA-tagged deletion mutant) (domain or fragment),binding,binds

# Reference: paper PMC8514509
